Experimental data taken from article PMC12204631.
No constants are given. Whether binding was seen depends on the method and setting. Binding seen in cells or lysates may run through a third protein. Here binding means that the protein was enriched with, or labelled near, the bait; the list need not be complete. Where a sequence is shown, tags or fusion partners need not be part of it.

T1: 6HIS-HA-JHD2 (S. cerevisiae) (UniProt P47156)
T1 sequence: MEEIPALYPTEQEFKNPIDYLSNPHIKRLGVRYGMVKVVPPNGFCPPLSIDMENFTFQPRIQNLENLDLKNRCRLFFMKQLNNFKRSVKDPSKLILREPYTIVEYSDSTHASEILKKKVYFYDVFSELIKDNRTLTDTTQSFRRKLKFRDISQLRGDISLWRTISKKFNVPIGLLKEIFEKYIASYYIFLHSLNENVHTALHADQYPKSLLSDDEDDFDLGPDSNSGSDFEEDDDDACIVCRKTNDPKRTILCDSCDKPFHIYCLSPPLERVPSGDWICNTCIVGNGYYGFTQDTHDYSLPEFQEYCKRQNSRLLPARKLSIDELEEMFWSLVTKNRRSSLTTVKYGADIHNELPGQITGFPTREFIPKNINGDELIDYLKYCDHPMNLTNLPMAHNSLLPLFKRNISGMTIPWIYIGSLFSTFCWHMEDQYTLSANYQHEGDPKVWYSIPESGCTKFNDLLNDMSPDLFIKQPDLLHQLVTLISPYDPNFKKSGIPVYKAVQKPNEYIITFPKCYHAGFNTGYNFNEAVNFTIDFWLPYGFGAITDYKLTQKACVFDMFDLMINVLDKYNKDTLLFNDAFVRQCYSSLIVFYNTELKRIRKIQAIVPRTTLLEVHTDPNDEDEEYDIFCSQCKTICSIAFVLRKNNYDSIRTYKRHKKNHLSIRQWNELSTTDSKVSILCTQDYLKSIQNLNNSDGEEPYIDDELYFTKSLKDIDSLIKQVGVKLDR

B1: NUP53 (protein, UniProt Q03790 1-475)
chain: MADLQKQENSSRFTNVSVIAPESQGQHEQQKQQEQLEQQKQPTGLLKGLNGFPSAPQPLFMEDPPSTVSGELNDNPAWFNNPRKRAIPNSIIKRSNGQSLSPVRSDSADVPAFSNSNGFNNVTFGSKKDPRILKNVSPNDNNSANNNAHSSDLGTVVFDSNEAPPKTSLADWQKEDGIFSSKTDNIEDPNLSSNITFDGKPTATPSPFRPLEKTSRILNFFDKNTKTTPNTASSEASAGSKEGASTNWDDHAIIIFGYPETIANSIILHFANFGEILEDFRVIKDFKKLNSKNMSKSPSLTAQKYPIYTGDGWVKLTYKSELSKSRALQENGIIMNGTLIGCVSYSPAALKQLASLKKSEEIINNKTSSQTSLSSKDLSNYRKTEGIFEKAKAKAVTSKVRNAEFKVSKNSTSFKNPRRLEIKDGRSLFLRNRGKIHSGVLSSIESDLKKREQASKSKKSWLNRLNNWLFGWNDL
B2: NUP133 (protein, UniProt P36161 1-1157)
chain: MSEKKVHLRLRKELSVPIAVVENESLAQLSYEEESQASLMDISMEQQQLRLHSHFDNSKVFTENNRYIVKTLQTDYSSGFSNDDELNGYIDMQIGYGLVNDHKKVYIWNIHSTQKDTPYITVPFRSDDNDEIAVAPRCILTFPATMDESPLALNPNDQDETGGLIIIKGSKAIYYEDINSINNLNFKLSEKFSHELELPINSSGGEKCDLMLNCEPAGIVLSTNMGRIFFITIRNSMGKPQLKLGKLLNKPFKLGIWSKIFNTNSSVVSLRNGPILGKGTRLVYITTNKGIFQTWQLSATNSHPTKLIDVNIYEAILESLQDLYPFAHGTLKIWDSHPLQDESSQLFLSSIYDSSCNETYYILSTIIFDSSSNSFTIFSTYRLNTFMESITDTKFKPKIFIPQMENANDTNEVTSILVMFPNAVVITQVNSKLDSSYSMRRKWEDIVSLRNDIDIIGSGYDSKSLYVLTKQMGVLQFFVKENEETNSKPEVGFVKSHVDQAVYFSKINANPIDFNLPPEISLDQESIEHDLKLTSEEIFHSNGKYIPPMLNTLGQHLSVRKEFFQNFLTFVAKNFNYKISPELKLDLIEKFEILNCCIKFNSIIRQSDVLNDIWEKTLSNYNLTQNEHLTTKTVVINSPDVFPVIFKQFLNHVVFVLFPSQNQNFKLNVTNLINLCFYDGILEEGEKTIRYELLELDPMEVDTSKLPWFINFDYLNCINQCFFDFTFACEEEGSLDSYKEGLLKIVKILYYQFNQFKIWINTQPVKSVNANDNFININNLYDDNHLDWNHVLCKVNLKEQCIQIAEFYKDLSGLVQTLQTLDQNDSTTVSLYETFFNEFPKEFSFTLFEYLIKHKKLNDLIFRFPQQHDVLIQFFQESAPKYGHVAWIQQILDGSYADAMNTLKNITVDDSKKGESLSECELHLNVAKLSSLLVEKDNLDINTLRKIQYNLDTIDAEKNISNKLKKGEVQICKRFKNGSIREVFNILVEELKSTTVVNLSDLVELYSMLDDEESLFIPLRLLSVDGNLLNFEVKKFLNALVWRRIVLLNASNEGDKLLQHIVKRVFDEELPKNNDFPLPSVDLLCDKSLLTPEYISETYGRFPIDQNAIREEIYEEISQVETLNSDNSLEIKLHSTIGSVAKEKNYTINYETNTVEY
B3: MEX67 (protein, UniProt Q99257 1-599)
chain: MSGFHNVGNINMMAQQQMQQNRIKISVRNWQNATMNDLINFISRNARVAVYDAHVEGPLVIGYVNSKAEAESLMKWNGVRFAGSNLKFELLDNNGASAGTSDTISFLRGVLLKRYDPQTKLLNLGALHSDPELIQKGVFSSISTQSKMFPAMMKLASTEKSLIVESVNLADNQLKDISAISTLAQTFPNLKNLCLANNQIFRFRSLEVWKNKFKDLRELLMTNNPITTDKLYRTEMLRLFPKLVVLDNVIVRDEQKLQTVYSLPMKIQQFFFENDALGQSSTDFATNFLNLWDNNREQLLNLYSPQSQFSVSVDSTIPPSTVTDSDQTPAFGYYMSSSRNISKVSSEKSIQQRLSIGQESINSIFKTLPKTKHHLQEQPNEYSMETISYPQINGFVITLHGFFEETGKPELESNKKTGKNNYQKNRRYNHGYNSTSNNKLSKKSFDRTWVIVPMNNSVIIASDLLTVRAYSTGAWKTASIAIAQPPQQQASVLPQVASMNPNITTPPQPQPSVVPGGMSIPGAPQGAMVMAPTLQLPPDVQSRLNPVQLELLNKLHLETKLNAEYTFMLAEQSNWNYEVAIKGFQSSMNGIPREAFVQF

Molecular target: T1, 6HIS-HA-JHD2 (S. cerevisiae)
Assay: affinity purification with mass spectrometry; whole cell extracts of a wild-type strain with 6HIS-HA-JHD2 induced from the GAL1 promoter for 6 hours; Ni-NTA agarose and anti-HA agarose beads at 4°C for 24 hours; proteins found with the empty vector strain excluded

binding, binds:
B1
B2
B3
